Laboratory results: PubChem BioAssay AID1224830 (NIAID, 2016)

- Purpose: 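Regulators of TLR4 signalling towards TNF-alpha in macrophage-like cells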 (primary screen)
- System: human THP-1 monocytic leukaemia cells, TNF dual-luciferase reporter clone, PMA-differentiated to macrophage-like cells
- Reagents: siRNA pool against human genes, 50 nM
- Duration: LPS for 4 h, given about 3 days after siRNA transfection
- Treatment: bacterial LPS (TLR4 ligand), 10 ng/ml
- Measurement: 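TNF firefly reporter luminescence divided by renilla, normalised to the plate median, then turned into a robust z-score for each replicate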
- Scale: TNF reporter robust z-score: higher = stronger TNF reporter response to LPS
- Hit rule: 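a well is active when its z-score exceeds 2.8 or falls below -1.5; control wells carry no call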
In all, the deposit lists about 18,000 reagents; below is an unselected part. About 2,900 of all reagents (16%) count as active. 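Calls are made per well; low scores hint the gene aids the LPS response, high scores that it dampens it.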 Repeated entries: four replicate wells of each siRNA pool.

target gene	TNF reporter robust z-score	call
GYS2	-1.57	active
GYS2	-1.21	inactive
GYS2	-1.61	active
GYS2	-0.69	inactive
OR6C1	-1.11	inactive
OR6C1	-1.02	inactive
OR6C1	-0.71	inactive
OR6C1	-0.16	inactive
GALC	0.14	inactive
GALC	0.47	inactive
GALC	0.84	inactive
GALC	1.27	inactive
UTP6	-0.21	inactive
UTP6	0.04	inactive
UTP6	0.34	inactive
UTP6	0.26	inactive
RAD9B	0.95	inactive
RAD9B	1.35	inactive
RAD9B	0.36	inactive
RAD9B	-0.3	inactive
MED31	-0.66	inactive
MED31	-0.88	inactive
MED31	-1.5	inactive
MED31	-0.26	inactive
DEK	1.33	inactive
DEK	1	inactive
DEK	1.42	inactive
DEK	1.67	inactive
CRLF1	0.32	inactive
CRLF1	1.9	inactive
CRLF1	0.23	inactive
CRLF1	2.7	inactive
C19orf25	1.91	inactive
C19orf25	1.6	inactive
C19orf25	0.77	inactive
C19orf25	1.28	inactive
PTBP3	1.44	inactive
PTBP3	3	active
PTBP3	2.38	inactive
PTBP3	4.04	active
EPHX1	1.01	inactive
EPHX1	2.28	inactive
EPHX1	1.15	inactive
EPHX1	3.12	active
UPF1	0.35	inactive
UPF1	0.98	inactive
UPF1	0.08	inactive
UPF1	0.39	inactive
BTN1A1	0.43	inactive
BTN1A1	0.77	inactive
BTN1A1	1.45	inactive
BTN1A1	0.23	inactive
MARCHF4	0.47	inactive
MARCHF4	-0.55	inactive
MARCHF4	-0.76	inactive
MARCHF4	-1.12	inactive
PDCD11	1.21	inactive
PDCD11	0.24	inactive
PDCD11	0.27	inactive
PDCD11	1.16	inactive
AP1B1	-0.46	inactive
AP1B1	-0.33	inactive
AP1B1	-1.2	inactive
AP1B1	0.05	inactive
TOP1MT	0.47	inactive
TOP1MT	0.18	inactive
TOP1MT	-0.96	inactive
TOP1MT	0.61	inactive
TUBD1	-0.53	inactive
TUBD1	-0.98	inactive
TUBD1	-1.29	inactive
TUBD1	-1.24	inactive
NDUFV1-DT	0.62	inactive
NDUFV1-DT	1.43	inactive
NDUFV1-DT	1.14	inactive
NDUFV1-DT	1.18	inactive
PCDHGA7	0.69	inactive
PCDHGA7	1.43	inactive
PCDHGA7	1.02	inactive
PCDHGA7	1.26	inactive
ATAD5	-0.46	inactive
ATAD5	0.08	inactive
ATAD5	0.53	inactive
ATAD5	0.75	inactive
NKX3-2	-0.9	inactive
NKX3-2	-1.29	inactive
NKX3-2	-1.2	inactive
NKX3-2	-0.98	inactive
SRPRB	-0.15	inactive
SRPRB	0.02	inactive
SRPRB	-1	inactive
SRPRB	-0.22	inactive
HEXD	-0.43	inactive
HEXD	-0.01	inactive
HEXD	-0.46	inactive
HEXD	-0.21	inactive
IPCEF1	-0.49	inactive
IPCEF1	0.93	inactive
IPCEF1	0.79	inactive
IPCEF1	0.53	inactive
CCNDBP1	-0.62	inactive
CCNDBP1	-0.47	inactive
CCNDBP1	-0.35	inactive
CCNDBP1	0.17	inactive
C6orf47	-0.27	inactive
C6orf47	0.8	inactive
C6orf47	0.4	inactive
C6orf47	-0.64	inactive
PMPCB	-0.45	inactive
PMPCB	-1.27	inactive
PMPCB	-1.02	inactive
PMPCB	2.43	inactive

Not a retest: 11 of the entries above.
target gene	TNF reporter robust z-score	call
NDUFV1-DT	1.18	inactive
PCDHGA7	0.69	inactive
PCDHGA7	1.43	inactive
PCDHGA7	1.02	inactive
PCDHGA7	1.26	inactive
ATAD5	-0.46	inactive
ATAD5	0.08	inactive
ATAD5	0.53	inactive
ATAD5	0.75	inactive
NKX3-2	-0.9	inactive
NKX3-2	-1.29	inactive
